Source: publication doi:10.1101/2023.08.23.554515
Results are given in words; binding and its absence hold for the method and conditions named. Binding seen in cells or lysates may run through a third protein. A yes stands for co-enrichment or nearness to the bait. Other partners may have been found.

By UniProt entry, the sequences of proteins in these tests, tags left out. Where a name states a change or a piece, a line headed by the entry shows the natural chain unless it says otherwise.
UniProt F4IPJ1: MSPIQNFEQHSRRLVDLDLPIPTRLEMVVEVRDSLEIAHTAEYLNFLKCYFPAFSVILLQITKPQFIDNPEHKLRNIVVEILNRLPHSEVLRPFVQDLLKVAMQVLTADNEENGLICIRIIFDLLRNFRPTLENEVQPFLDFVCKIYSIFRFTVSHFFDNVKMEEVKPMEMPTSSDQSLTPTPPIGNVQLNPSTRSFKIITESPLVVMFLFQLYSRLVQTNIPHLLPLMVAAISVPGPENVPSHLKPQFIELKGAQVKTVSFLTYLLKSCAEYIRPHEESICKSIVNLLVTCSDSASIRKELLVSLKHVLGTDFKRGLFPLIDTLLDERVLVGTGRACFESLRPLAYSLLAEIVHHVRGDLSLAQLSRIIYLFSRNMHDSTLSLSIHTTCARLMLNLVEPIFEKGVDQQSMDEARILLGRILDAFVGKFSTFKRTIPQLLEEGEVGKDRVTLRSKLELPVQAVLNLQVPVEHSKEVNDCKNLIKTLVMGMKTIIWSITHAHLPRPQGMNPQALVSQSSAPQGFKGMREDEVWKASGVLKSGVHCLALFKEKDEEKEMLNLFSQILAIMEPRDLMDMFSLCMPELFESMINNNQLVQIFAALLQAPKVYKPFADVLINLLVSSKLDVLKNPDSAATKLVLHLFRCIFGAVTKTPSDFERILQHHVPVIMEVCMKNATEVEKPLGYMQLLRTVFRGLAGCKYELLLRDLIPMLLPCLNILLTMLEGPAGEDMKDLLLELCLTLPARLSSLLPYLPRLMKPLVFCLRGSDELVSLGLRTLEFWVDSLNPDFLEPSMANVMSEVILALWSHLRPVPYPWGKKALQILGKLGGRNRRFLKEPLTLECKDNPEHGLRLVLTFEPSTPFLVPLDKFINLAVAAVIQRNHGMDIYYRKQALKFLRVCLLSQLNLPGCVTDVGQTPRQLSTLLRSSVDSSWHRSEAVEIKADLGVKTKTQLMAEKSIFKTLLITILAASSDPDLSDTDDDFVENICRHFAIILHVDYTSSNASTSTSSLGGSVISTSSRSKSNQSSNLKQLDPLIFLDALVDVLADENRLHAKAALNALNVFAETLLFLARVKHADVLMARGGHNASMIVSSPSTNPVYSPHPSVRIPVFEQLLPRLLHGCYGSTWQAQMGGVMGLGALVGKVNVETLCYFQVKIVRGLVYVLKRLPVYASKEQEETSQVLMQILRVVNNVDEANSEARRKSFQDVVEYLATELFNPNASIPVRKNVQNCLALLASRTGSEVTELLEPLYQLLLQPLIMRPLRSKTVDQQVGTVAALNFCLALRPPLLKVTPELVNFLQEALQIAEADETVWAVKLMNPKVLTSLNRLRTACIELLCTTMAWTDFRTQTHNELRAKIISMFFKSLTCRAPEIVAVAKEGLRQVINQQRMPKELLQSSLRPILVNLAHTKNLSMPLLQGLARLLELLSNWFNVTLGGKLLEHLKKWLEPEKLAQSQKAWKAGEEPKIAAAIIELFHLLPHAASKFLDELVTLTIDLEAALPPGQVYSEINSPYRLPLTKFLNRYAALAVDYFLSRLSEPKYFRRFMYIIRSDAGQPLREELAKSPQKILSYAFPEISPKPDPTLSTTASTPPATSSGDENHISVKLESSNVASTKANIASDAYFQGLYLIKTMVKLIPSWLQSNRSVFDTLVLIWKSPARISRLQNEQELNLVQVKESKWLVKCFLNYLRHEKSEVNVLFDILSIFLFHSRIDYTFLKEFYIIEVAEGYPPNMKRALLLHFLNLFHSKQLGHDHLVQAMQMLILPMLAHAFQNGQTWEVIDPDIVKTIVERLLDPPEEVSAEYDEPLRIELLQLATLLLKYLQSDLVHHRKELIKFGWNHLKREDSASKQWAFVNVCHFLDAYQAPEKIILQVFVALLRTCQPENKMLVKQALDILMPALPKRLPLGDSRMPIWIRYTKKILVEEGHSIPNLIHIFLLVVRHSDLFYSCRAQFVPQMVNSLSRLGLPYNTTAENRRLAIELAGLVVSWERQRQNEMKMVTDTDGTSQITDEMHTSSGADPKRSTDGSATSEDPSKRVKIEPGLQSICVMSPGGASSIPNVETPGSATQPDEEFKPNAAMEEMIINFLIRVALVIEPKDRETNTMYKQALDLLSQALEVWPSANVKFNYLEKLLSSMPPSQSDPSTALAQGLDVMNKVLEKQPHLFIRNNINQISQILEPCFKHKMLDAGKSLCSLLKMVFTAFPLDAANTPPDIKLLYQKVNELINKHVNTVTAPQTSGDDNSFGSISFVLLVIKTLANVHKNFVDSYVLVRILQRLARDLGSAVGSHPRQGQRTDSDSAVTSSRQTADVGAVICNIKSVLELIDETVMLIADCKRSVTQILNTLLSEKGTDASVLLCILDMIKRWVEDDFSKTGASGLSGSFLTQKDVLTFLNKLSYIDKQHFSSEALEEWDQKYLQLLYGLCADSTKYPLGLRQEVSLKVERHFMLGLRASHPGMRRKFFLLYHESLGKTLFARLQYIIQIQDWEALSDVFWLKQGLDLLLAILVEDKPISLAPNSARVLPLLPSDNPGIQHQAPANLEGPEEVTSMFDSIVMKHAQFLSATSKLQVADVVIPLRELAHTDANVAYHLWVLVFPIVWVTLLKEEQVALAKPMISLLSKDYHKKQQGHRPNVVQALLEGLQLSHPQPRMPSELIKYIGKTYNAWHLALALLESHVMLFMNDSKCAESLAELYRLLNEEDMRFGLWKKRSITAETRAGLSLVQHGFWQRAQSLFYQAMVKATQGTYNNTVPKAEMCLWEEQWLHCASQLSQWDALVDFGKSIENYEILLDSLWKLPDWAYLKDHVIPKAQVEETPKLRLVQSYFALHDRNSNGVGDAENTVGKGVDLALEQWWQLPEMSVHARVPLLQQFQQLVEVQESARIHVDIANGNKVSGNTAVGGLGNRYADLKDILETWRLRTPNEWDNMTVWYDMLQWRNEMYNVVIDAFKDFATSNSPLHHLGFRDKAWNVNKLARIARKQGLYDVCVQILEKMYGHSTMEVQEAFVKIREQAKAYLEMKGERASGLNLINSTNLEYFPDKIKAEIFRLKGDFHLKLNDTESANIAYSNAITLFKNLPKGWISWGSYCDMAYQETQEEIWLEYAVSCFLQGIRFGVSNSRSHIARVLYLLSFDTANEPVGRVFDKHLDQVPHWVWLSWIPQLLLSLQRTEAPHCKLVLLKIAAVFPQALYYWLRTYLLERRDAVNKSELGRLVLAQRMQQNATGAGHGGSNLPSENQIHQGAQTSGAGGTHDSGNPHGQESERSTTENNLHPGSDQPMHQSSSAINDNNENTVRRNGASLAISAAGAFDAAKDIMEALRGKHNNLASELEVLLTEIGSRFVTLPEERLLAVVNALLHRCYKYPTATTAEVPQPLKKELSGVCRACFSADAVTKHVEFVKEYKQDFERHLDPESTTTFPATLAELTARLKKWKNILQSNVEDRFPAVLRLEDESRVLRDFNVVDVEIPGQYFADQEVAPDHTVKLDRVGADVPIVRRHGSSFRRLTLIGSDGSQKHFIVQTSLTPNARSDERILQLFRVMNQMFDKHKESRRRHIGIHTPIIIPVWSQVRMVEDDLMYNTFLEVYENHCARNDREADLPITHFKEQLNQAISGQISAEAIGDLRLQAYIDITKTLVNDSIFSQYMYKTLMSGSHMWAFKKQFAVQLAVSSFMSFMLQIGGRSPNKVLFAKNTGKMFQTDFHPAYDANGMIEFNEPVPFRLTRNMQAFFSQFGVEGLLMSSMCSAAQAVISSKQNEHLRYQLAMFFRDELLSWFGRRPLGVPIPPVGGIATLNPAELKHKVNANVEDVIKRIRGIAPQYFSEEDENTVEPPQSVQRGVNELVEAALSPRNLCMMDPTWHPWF
UniProt Q9FMT4: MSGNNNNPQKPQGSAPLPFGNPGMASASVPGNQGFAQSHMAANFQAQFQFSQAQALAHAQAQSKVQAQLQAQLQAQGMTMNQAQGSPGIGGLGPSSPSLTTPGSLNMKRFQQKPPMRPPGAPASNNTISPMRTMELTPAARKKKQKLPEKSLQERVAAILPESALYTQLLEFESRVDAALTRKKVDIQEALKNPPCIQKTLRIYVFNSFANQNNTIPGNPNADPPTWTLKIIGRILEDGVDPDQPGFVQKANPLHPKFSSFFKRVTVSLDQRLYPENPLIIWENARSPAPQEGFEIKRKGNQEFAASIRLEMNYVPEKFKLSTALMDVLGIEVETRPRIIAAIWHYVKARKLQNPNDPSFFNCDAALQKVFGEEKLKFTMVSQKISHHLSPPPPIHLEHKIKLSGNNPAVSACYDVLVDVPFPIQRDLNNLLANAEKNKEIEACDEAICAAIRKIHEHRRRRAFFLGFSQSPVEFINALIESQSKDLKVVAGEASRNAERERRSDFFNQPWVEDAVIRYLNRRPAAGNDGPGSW
UniProt Q6EVK6: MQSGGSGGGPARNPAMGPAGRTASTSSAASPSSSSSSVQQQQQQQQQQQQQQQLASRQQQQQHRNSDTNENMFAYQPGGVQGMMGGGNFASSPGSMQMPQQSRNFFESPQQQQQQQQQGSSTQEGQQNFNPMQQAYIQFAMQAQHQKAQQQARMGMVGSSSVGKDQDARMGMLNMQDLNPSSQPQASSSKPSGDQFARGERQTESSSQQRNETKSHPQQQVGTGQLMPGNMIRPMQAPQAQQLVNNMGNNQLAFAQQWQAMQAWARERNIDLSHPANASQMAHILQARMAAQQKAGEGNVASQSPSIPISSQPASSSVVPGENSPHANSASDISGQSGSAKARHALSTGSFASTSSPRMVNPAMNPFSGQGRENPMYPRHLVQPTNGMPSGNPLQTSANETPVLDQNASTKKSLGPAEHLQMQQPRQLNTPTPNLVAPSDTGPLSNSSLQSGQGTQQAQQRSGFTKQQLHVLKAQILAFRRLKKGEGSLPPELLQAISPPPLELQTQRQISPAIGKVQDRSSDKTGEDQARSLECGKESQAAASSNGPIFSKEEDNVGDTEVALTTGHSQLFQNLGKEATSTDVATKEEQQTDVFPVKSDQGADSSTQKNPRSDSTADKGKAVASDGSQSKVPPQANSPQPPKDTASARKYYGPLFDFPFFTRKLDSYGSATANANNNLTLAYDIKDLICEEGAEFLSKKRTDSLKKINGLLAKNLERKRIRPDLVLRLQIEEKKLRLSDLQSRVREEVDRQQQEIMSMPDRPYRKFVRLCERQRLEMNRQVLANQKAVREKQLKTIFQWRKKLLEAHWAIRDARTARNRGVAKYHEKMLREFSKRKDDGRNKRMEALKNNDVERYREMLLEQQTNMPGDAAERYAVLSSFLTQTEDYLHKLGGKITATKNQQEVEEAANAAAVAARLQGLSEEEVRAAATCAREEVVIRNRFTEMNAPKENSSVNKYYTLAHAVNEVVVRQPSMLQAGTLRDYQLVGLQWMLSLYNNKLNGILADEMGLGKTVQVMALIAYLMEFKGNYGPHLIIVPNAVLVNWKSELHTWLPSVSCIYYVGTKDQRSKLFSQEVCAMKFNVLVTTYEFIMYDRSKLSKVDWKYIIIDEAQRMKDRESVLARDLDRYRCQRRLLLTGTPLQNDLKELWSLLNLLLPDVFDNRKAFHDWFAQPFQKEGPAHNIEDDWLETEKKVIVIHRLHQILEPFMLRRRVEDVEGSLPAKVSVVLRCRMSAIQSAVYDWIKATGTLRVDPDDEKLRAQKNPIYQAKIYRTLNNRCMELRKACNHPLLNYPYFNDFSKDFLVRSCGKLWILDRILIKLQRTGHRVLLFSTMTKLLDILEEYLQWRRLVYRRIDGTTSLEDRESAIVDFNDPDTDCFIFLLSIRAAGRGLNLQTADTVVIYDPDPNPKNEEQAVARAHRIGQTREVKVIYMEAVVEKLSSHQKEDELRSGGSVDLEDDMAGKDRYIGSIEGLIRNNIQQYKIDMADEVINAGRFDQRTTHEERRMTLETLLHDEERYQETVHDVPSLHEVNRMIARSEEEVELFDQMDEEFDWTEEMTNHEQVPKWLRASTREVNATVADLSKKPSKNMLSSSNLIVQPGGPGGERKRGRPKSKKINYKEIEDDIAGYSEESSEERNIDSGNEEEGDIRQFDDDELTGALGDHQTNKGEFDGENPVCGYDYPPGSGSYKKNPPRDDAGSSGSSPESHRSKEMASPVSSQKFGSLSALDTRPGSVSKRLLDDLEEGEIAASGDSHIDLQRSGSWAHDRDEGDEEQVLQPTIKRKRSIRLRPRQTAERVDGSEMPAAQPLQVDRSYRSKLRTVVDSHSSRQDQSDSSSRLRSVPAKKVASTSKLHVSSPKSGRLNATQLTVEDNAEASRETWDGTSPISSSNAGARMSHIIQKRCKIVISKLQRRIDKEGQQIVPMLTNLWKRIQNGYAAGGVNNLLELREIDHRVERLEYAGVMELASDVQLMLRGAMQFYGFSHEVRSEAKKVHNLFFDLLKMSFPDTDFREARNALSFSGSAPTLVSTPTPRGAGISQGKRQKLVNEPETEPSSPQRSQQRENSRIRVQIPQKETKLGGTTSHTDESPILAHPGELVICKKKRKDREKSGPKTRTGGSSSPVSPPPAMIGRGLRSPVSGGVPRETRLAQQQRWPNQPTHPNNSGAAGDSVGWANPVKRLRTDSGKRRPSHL

T1: SCRM-TbID-Venus (SCRMp::SCRM-TbID-Venus) (Arabidopsis thaliana) (UniProt Q9LSE2)
T1 sequence: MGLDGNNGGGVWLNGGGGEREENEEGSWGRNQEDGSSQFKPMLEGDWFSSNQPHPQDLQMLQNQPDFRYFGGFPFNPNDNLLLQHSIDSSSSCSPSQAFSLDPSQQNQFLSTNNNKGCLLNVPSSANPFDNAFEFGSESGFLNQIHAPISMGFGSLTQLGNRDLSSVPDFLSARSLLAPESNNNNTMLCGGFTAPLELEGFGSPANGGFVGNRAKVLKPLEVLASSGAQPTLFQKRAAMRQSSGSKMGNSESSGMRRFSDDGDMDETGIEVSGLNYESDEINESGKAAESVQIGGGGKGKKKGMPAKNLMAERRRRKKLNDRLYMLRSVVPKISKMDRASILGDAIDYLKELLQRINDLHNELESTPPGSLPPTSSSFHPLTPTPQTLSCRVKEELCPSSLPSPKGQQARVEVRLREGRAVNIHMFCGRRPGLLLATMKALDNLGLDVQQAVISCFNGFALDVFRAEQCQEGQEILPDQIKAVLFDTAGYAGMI


target: T1, SCRM-TbID-Venus (SCRMp::SCRM-TbID-Venus) (Arabidopsis thaliana); test: proximity labelling; TurboID fused to SCRM (SCRMp::SCRM-TbID-Venus in ice1-2), 5 day old seedlings in 50 uM biotin, streptavidin bead pulldown, on-bead trypsin digest, LC-MS with label-free quantification; enrichment against WT, SPCHp and FAMAp driven nuclear TbID and untreated SCRM-TbID

binding	Molecule
binds	BRIP2 (endogenous) (from UniProt Q9LF51)
binds	TRA1a (endogenous) (from UniProt F4IPJ1)
binds	SYS1 (endogenous)
binds	… (SPCH) (endogenous) (protein, UniProt Q700C7 1-364) MQEIIPDFLEECEFVDTSLAGDDLFAILESLEGAGEISPTAASTPKDGTTSSKELVKDQDYENSSPKRKKQRLETRKEEDEEEEDGDGEAEEDNKQDGQQKMSHVTVERNRRKQMNEHLTVLRSLMPCFYVKRGDQASIIGGVVEYISELQQVLQSLEAKKQRKTYAEVLSPRVVPSPRPSPPVLSPRKPPLSPRINHHQIHHHLLLPPISPRTPQPTSPYRAIPPQLPLIPQPPLRSYSSLASCSSLGDPPPYSPASSSSSPSVSSNHESSVINELVANSKSALADVEVKFSGANVLLKTVSHKIPGQVMKIIAALEDLALEILQVNINTVDETMLNSFTIKIGIECQLSAEELAQQIQQTFC
binds	SWI3D (endogenous) (protein, UniProt Q8VY05 1-985) MEEKRRDSAGTLAFAGSSGDSPASEPMPAPRRRGGGLKRKANALGGSNFFSSAPSKRMLTREKAMLASFSPVHNGPLTRARQAPSIMPSAADGVKSEVLNVAVGADGEKPKEEEERNKAIREWEALEAKIEADFEAIRSRDSNVHVVPNHCGWFSWEKIHPLEERSLPSFFNGKLEGRTSEVYREIRNWIMGKFHSNPNIQIELKDLTELEVGDSEAKQEVMEFLDYWGLINFHPFPPTDTGSTASDHDDLGDKESLLNSLYRFQVDEACPPLVHKPRFTAQATPSGLFPDPMAADELLKQEGPAVEYHCNSCSADCSRKRYHCPKQADFDLCTECFNSGKFSSDMSSSDFILMEPAEAPGVGSGKWTDQETLLLLEALEIFKENWNEIAEHVATKTKAQCMLHFLQMPIEDAFLDQIDYKDPISKDTTDLAVSKDDNSVLKDAPEEAENKKRVDEDETMKEVPEPEDGNEEKVSQESSKPGDASEETNEMEAEQKTPKLETAIEERCKDEADENIALKALTEAFEDVGHSSTPEASFSFADLGNPVMGLAAFLVRLAGSDVATASARASIKSLHSNSGMLLATRHCYILEDPPDNKKDPTKSKSCSADAEGNDDNSHKDDQPEEKSKKAEEVSLNSDDREMPDTDTGKETQDSVSEEKQPGSRTENSTTKLDAVQEKRSSKPVTTDNSEKPVDIICPSQDKCSGKELQEPLKDGNKLSSENKDASQSTVSQSAADASQPEASRDVEMKDTLQSEKDPEDVVKTVGEKVQLAKEEGANDVLSTPDKSVSQQPIGSASAPENGTAGGNPNIEGKKEKDICEGTKDKYNIEKLKRAAISAISAAAVKAKNLAKQEEDQIRQLSGSLIEKQLHKLEAKLSIFNEAESLTMRVREQLERSRQRLYHERAQIIAARLGVPPSMSSKASLPTNRIAANFANVAQRPPMGMAFPRPPMPRPPGFPVPGSFVAATTMTGSSDPSPGSDNVSSV

The next lines start with the molecule.

Molecule	binding
SYS3 (endogenous) (from UniProt Q9SD86)	binds
BRD1 (endogenous) (from UniProt Q9LM88)	binds
SWP73B (endogenous) (from UniProt Q9FMT4)	binds
HAC5 (endogenous) (from UniProt Q9LE42 1-1670) (enzyme)	binds
BRAHMA (BRM) (endogenous) (from UniProt Q6EVK6 1-2193) (enzyme)	binds
SWI3C (endogenous) (protein, UniProt Q9XI07 1-807) MPASEDRRGKWKRKKRGGLSAARKPKQEEEDMEEEDEENNNNNNEEMDDVENADELQQNGGATPDPGLGIGEVVEDSGSRISDFPAVVKRVVIRPHASVMAVVAAERAGLIGETRGQGSLPALENISFGQLQALSTVPADSLDLERSDGSSSAYVISPPPIMDGEGVVKRFGDLVHVLPMHSDWFAPNTVDRLERQVVPQFFSGKSPNHTPESYMEFRNAIVSKYVENPEKTLTISDCQGLVDGVDIEDFARVFRFLDHWGIINYCATAQSHPGPLRDVSDVREDTNGEVNVPSAALTSIDSLIKFDKPNCRHKGGEVYSSLPSLDGDSPDLDIRIREHLCDSHCNHCSRPLPTVYFQSQKKGDILLCCDCFHHGRFVVGHSCLDFVRVDPMKFYGDQDGDNWTDQETLLLLEAVELYNENWVQIADHVGSKSKAQCILHFLRLPVEDGLLDNVEVSGVTNTENPTNGYDHKGTDSNGDLPGYSEQGSDTEIKLPFVKSPNPVMALVAFLASAVGPRVAASCAHESLSVLSEDDRMKSEGMQGKEASLLDGENQQQDGAHKTSSQNGAEAQTPLPQDKVMAAFRAGLSAAATKAKLFADHEEREIQRLSANIVNHQLKRMELKLKQFAEIETLLMKECEQVEKTRQRFSAERARMLSARFGSPGGISPQTNNLQGMSLSTGGNNINSLMHQQHQQQQASATSQPSIIPGFSNNPQVQAQMHFMARQQQQQQQQQQQQQQAFSFGPRLPLNAIQTNAGSTASPNVMFGNNQLNNPAAAGAASINQPSFSHPMVRSSTGSGSGSGLGLN	binds
LUH (endogenous) (protein, UniProt O48847 1-787) MAQSNWEADKMLDVYIYDYLVKKKLHNTAKSFMTEGKVSPDPVAIDAPGGFLFEWWSVFWDIFIARTNEKHSEAAAAYIEAQQGKAKEQQMQIQQLQMMRQAQMQRRDPNHPSLGGPMNAIGSEGMIGQSNASALAAKMYEERMKQPNPMNSETSQPHLDARMALLKSATNHHGQIVQGNHQGGVSAALQQIQSRTQQPTEIKTEVNLGTSPRQLPVDPSTVYGQGILQSKPGMGSAGLNPGVSGLPLKGWPLTGIEQMRPGLGGPQVQKSFLQNQSQFQLSPQQQQHQMLAQVQAQGNMTNSPMYGGDMDPRRFTGLPRGNLNPKDGQQNANDGSIGSPMQSSSSKHISMPPVQQSSSQQQDHLLSQQSQQNNRKRKGPSSSGPANSTGTGNTVGPSNSQPSTPSTHTPVDGVAIAGNMHHVNSMPKGPMMYGSDGIGGLASSANQLLQDDMDQFGDVGALEDNVESFLSQDDGDGGSLFGTLKRNSSVHTETSKPFSFNEVSCIRKSASKVICCSFSYDGKLLASAGHDKKVFIWNMETLQVESTPEEHAHIITDVRFRPNSTQLATSSFDKTIKIWDASDPGYFLRTISGHAAPVMSIDFHPKKTELLCSCDSNNDIRFWDINASCVRAVKGASTQVRFQPRTGQFLAAASENTVSIFDIENNNKRVNIFKGHSSNVHSVCWSPNGELVASVSEDAVKLWSLSSGDCIHELSNSGNKFHSVVFHPSYPDLLVIGGYQAIELWNTMENKCMTVAGHECVISALAQSPSTGVVASASHDKSVKIWK	binds
SPT20 (endogenous) (protein, UniProt F4IDB2 1-1325) MGVSFKISKVGRKFRPKISTELATPDSPKAIVLSGKPKATDDSNIGDVSGFSKPSLPDISPDHEVSFILSLYPNGYSIGKTSEAMQQISFRDVPKVLHPYDRAAEGLLSAIEAGRLPGDILEDIPCKFVDGVVICEVHDYRKHTSSQVSPVINKLRLKMSLENVVKDIPSMSDNSWTYGDLMEVESRILKALQPELCLDPLPRLDRLSKNPLTAKLDLSLSTLRRKRLRQMAEVTVMSQNKIQGKKVCIDRLPESSERGNLPGHLIMQQTNNNQAIQNLGTNMLAGLRSQPLQDAPNSSLALVPPQQQRYMGIGSTRNTQDQGSNSVSVSGASPGGLDAMLPYGSDSMNPGTSFHRKRESQEGQMSSMPGLNKRTRVSHMGPDGVPQQQLGQRMDGLHGSDTNWKNTLLQHQDMLGRSIQYPNTSIQRFSPHQMEGVMNQEGGPMQFPASQQGGMKYTSKEEPFETGKIDGGTRNNIPGVGSDANDLDPRIQSRMPHNAFIRSNFPQTSWNVNPGQQIEKEPKKEEQFSRRISAQSPRLSAGGPPQSPLSSKSGEFSGGSMGTHYGAVAAAQKDKAVTSIPAIGATQSVGSSANEAMQQRQHQAQMAAKRRTNSLPKTQVISTVGSPVSVNTISVPVNARSPSVGPQTLGDHAILDRFSKIERVAARYQLNCKKHKVDEYSRRPRVYAKQPLTVCLSNLSNEEVFKDEDEALSKSIFGGSMNTYKTRVIHFGQMERVMQGSVPSFIPRNRTRLVMSEKAVDGTVAWYQGDVDEGDVFQAEDFLLALPNTHIADLLATQFKSLMAREGYMIEEHIMAKPNRGDTGPISSHPNSAGGYPRGYSANDMQQYGDAVAGQASGEASKHGNTGNTPNNSTQNILANARMVPPTNSQALQMSQGLLSGVSMPMQPQQLDPQQSALLSSHSQQKNQQSMFTQQQHPQMQRPSMILPTNPLSAINSMSQSSGMQPGGQMANKYSPLQLQMLQQQQQAAVQKKIMMGLGSGVGMGMGMGMGMGMGSMGNSIAGLGALGNQLNMAGRGMGGTGISSSMSVPGIGNMGQNPMNLNPASNLNAISQQLRSGALTPQQNALFTQIRMGMANRGGVMGAPQTGISGVSGTRQMHPSSAGLSMLDQNRANLQRAAAMGNMGPPKLMPGMMNLYMNQQQQQQQLQQQPQQQQLQHQQQLQQPMSQPSQQLAQSPQQQQQLQQHEQPQQAQQQQQATASPLQSVLSPPQVGSPSAGITQQQLQQSSPQQMSQRTPMSPQQVNQRTPMSPQISSGAMHPMSTSNLEGCPASPQLSSQTMGSVGSITNSPMELQGPKNNSAGNNS	binds
FAMA (endogenous) (protein, UniProt Q56YJ8 1-414) MDKDYSAPNFLGESSGGNDDNSSGMIDYMFNRNLQQQQKQSMPQQQQHQLSPSGFGATPFDKMNFSDVMQFADFGSKLALNQTRNQDDQETGIDPVYFLKFPVLNDKIEDHNQTQHLMPSHQTSQEGGECGGNIGNVFLEEKEDQDDDNDNNSVQLRFIGGEEEDRENKNVTKKEVKSKRKRARTSKTSEEVESQRMTHIAVERNRRKQMNEHLRVLRSLMPGSYVQRGDQASIIGGAIEFVRELEQLLQCLESQKRRRILGETGRDMTTTTTSSSSPITTVANQAQPLIITGNVTELEGGGGLREETAENKSCLADVEVKLLGFDAMIKILSRRRPGQLIKTIAALEDLHLSILHTNITTMEQTVLYSFNVKITSETRFTAEDIASSIQQIFSFIHANTNISGSSNLGNIVFT	binds
